# Assay results reported in the supplement of paper PMC11098740.
# Structures can show the parent of a compound that is named as a salt. ± gives the standard deviation of the averaged measurements. The list shows a part of the results. Repeats are few or missing, and single values can be far off.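 Test system: a mixed pool of 41 HAP1 clones in which 61 cancer-associated proteins carry fluorescent tags inserted into introns, and each clone is identified from its image pattern. Read-outs are compared with DMSO-treated control wells. The BRD4 degrader dBET6 served as the positive control.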
# Target: BRD4 (intron 10 mScarlet tag, HAP1) (UniProt O60885)
# Experiment: BRD4 median nuclear fluorescence intensity change vs DMSO (log2 fold change); higher = more BRD4 protein
# Details: 6 h
row,SMILES,BRD4 median nuclear fluorescence intensity change (log2)
1,Nc1nc2ccc(OC(F)(F)F)cc2s1 [riluzole] (10.0074 µM),0.046
2,Cc1ncc([N+](=O)[O-])n1CCO [metronidazole] (10 µM),-0.0336
3,C[N+]1(CCCCC[N+]2(C)CCCC2)CCCC1 [pentolinium tartrate] (10 µM),0.146
4,Cn1c(=O)c2nc[nH]c2n(C)c1=O [theophylline] (10 µM),-0.0499
5,CC(C)[C@H]1CC[C@H](C(=O)N[C@H](Cc2ccccc2)C(=O)O)CC1 [nateglinide] (10 µM),0.0176
6,CN1CC2c3ccccc3Oc3ccc(Cl)cc3C2C1 (centres undefined) [asenapine] (10.00077168 µM),0.116
7,CO[C@@H]1[C@@H](OC(N)=O)[C@@H](O)[C@H](Oc2ccc3c(O)c(NC(=O)c4ccc(O)c(CC=C(C)C)c4)c(=O)oc3c2C)OC1(C)C [novobiocin] (10 µM),0.139
8,CCN1CC(CCN2CCOCC2)C(c2ccccc2)(c2ccccc2)C1=O (centres undefined) [doxapram] (10 µM),0.057
9,CCCCN1C[C@H](O)[C@@H](O)[C@H](O)[C@H]1CO [miglustat (hydrochloride)] (10 µM),0.0404
10,CCCCC(F)(F)[C@@]1(O)CC[C@H]2[C@@H](CC(=O)[C@@H]2CCCCCCC(=O)O)O1 [lubiprostone] (10 µM),0.0367
11,CC1(C)C[C@@H]1C(=O)N/C(=C\CCCCSC[C@H](N)C(=O)O)C(=O)O [cilastatin] (10 µM),-0.0309
12,Cc1oncc1C(=O)Nc1ccc(C(F)(F)F)cc1 [leflunomide] (10 µM),0.135
13,COc1ccc(C[C@@H]2c3cc(OC)c(OC)cc3CC[N@+]2(C)CCC(=O)OCCCCCOC(=O)CC[N@@+]2(C)CCc3cc(OC)c(OC)cc3[C@H]2Cc2ccc(OC)c(OC)c2)cc1OC [cisatracurium besylate] (10 µM),0.083
14,Cc1ccc(NC(=O)c2ccc(CN3CCN(C)CC3)cc2)cc1Nc1nc(-c2cccnc2)cs1 [masitinib] (10 µM),0.0805
15,COc1cc(N)c(Cl)cc1C(=O)NC1CCN(CCCOc2ccc(F)cc2)CC1OC (centres undefined) [cisapride] (10.00071305 µM),0.0221
16,Cc1nc(Nc2ncc(C(=O)Nc3c(C)cccc3Cl)s2)cc(N2CCN(CCO)CC2)n1 [dasatinib] (0.0213961 µM),0.095
17,C=CC[C@@H]1/C=C(\C)C[C@H](C)C[C@H](OC)[C@H]2O[C@@](O)(C(=O)C(=O)N3CCCC[C@H]3C(=O)O[C@H](/C(C)=C/[C@@H]3CC[C@@H](O)[C@H](OC)C3)[C@H](C)[C@@H](O)CC1=O)[C@H](C)C[C@@H]2OC [tacrolimus] (20 µM),-0.0181
18,O=C(Nc1ccc([N+](=O)[O-])cc1Cl)c1cc(Cl)ccc1O [niclosamide] (9.99966 µM),0.036
19,CC[C@@H](CO)NCCN[C@@H](CC)CO [ethambutol] (10 µM),0.00609
20,Nc1nnc(-c2cccc(Cl)c2Cl)c(N)n1 [lamotrigine] (10 µM),-0.0208

# In a second layout: entries from further up.
row | SMILES | BRD4 median nuclear fluorescence intensity change (log2)
10 | CCCCC(F)(F)[C@@]1(O)CC[C@H]2[C@@H](CC(=O)[C@@H]2CCCCCCC(=O)O)O1 [lubiprostone] (10 µM) | 0.0367
14 | Cc1ccc(NC(=O)c2ccc(CN3CCN(C)CC3)cc2)cc1Nc1nc(-c2cccnc2)cs1 [masitinib] (10 µM) | 0.0805

# Continued.

row,SMILES,BRD4 median nuclear fluorescence intensity change (log2)
1,CC[C@]1(O)C[C@@H]2CN(CCc3c([nH]c4ccccc34)[C@@](C(=O)OC)(c3cc4c(cc3OC)N(C)[C@H]3[C@@](O)(C(N)=O)[C@H](O)[C@]5(CC)C=CCN6CC[C@]43[C@@H]65)C2)C1 [vindesine sulfate] (10 µM),0.025
2,CCCN[C@H]1CCc2nc(N)sc2C1 [pramipexole] (10.00012856 µM),0.0647
3,C#Cc1cccc(Nc2ncnc3cc(OCCOC)c(OCCOC)cc23)c1 [erlotinib] (20 µM),0.00565
4,CCCc1nc(C(C)(C)O)c(C(=O)OCc2oc(=O)oc2C)n1Cc1ccc(-c2ccccc2-c2nnn[nH]2)cc1 [olmesartan medoxomil] (10.00003285 µM),0.054
5,C/C=C1\NC(=O)[C@H]2CSSCC/C=C/[C@H](CC(=O)N[C@H](C(C)C)C(=O)N2)OC(=O)[C@H](C(C)C)NC1=O [romidepsin] (10 µM),0.00917 ± 0.041
6,c1ccc([C@H]2CN3CCSC3=N2)cc1 [levamisole] (10 µM),0.0514
7,O=C(O)c1cnccn1 [pyrazinoic acid] (10 µM),0.0796
8,Nc1nc(NC2CC2)c2ncn([C@H]3C=C[C@@H](CO)C3)c2n1 [abacavir] (10 µM),-0.026
9,C[C@@H](Oc1cc(-c2cnn(C3CCNCC3)c2)cnc1N)c1c(Cl)ccc(F)c1Cl [crizotinib] (20 µM),0.0293
10,CN(C)CCOc1ccc(/C(=C(/CCCl)c2ccccc2)c2ccccc2)cc1 [toremifene] (20 µM),0.0801
11,C1CNCCN1 [piperazine hexahydrate] (10.008 µM),0.0872
12,COC(=O)Nc1nc2cc(C(=O)c3ccccc3)ccc2[nH]1 [mebendazole] (9.99917 µM),0.0145
13,O=C1CCC(N2C(=O)c3ccccc3C2=O)C(=O)N1 (centres undefined) [thalidomide] (9.40275 µM),0.00478
14,CC(=O)O[C@H]1C[C@@H]2CC[C@@H]3[C@H](CC[C@@]4(C)[C@H]3C[C@H]([N+]3(C)CCCCC3)[C@@H]4OC(C)=O)[C@@]2(C)C[C@@H]1N1CCCCC1 [vecuronium bromide] (10.00071805 µM),0.0624
15,CC(C)(Sc1cc(C(C)(C)C)c(O)c(C(C)(C)C)c1)Sc1cc(C(C)(C)C)c(O)c(C(C)(C)C)c1 [probucol] (10 µM),0.0572
16,Cc1cn(-c2cc(NC(=O)c3ccc(C)c(Nc4nccc(-c5cccnc5)n4)c3)cc(C(F)(F)F)c2)cn1 [nilotinib] (20 µM),0.197
17,Cc1cn[nH]c1 [fomepizole] (10 µM),0.126
18,N[C@@H]1CONC1=O [d-cycloserine] (10 µM),0.0728
19,C[N+](C)(C)CCOC(=O)CCC(=O)OCC[N+](C)(C)C [succinylcholine chloride] (10 µM),-0.019
